In article PMC6322583:
These are yes or no findings as the source states them, for the method shown. In cells and extracts the contact can be indirect. Some entries that bind do so weakly or less than the wild type. Tags and fused reporters may be left off the sequences shown.

Tests used:
[1] = target: YC–CaM2 (CaM2 fused to the C-terminal half of YFP) (UniProt P0DH97); assay: split reporter; BiFC: YN and YC fusions transiently co-expressed in N. benthamiana leaves by Agrobacterium infiltration; YFP fluorescence by confocal imaging with identical laser settings
[2] = target: T1, YC–TRM1 (TON1 RECRUITMENT MOTIF1 fused to the C-terminal half of YFP) (UniProt Q9S823); assay: as above
T1 sequence: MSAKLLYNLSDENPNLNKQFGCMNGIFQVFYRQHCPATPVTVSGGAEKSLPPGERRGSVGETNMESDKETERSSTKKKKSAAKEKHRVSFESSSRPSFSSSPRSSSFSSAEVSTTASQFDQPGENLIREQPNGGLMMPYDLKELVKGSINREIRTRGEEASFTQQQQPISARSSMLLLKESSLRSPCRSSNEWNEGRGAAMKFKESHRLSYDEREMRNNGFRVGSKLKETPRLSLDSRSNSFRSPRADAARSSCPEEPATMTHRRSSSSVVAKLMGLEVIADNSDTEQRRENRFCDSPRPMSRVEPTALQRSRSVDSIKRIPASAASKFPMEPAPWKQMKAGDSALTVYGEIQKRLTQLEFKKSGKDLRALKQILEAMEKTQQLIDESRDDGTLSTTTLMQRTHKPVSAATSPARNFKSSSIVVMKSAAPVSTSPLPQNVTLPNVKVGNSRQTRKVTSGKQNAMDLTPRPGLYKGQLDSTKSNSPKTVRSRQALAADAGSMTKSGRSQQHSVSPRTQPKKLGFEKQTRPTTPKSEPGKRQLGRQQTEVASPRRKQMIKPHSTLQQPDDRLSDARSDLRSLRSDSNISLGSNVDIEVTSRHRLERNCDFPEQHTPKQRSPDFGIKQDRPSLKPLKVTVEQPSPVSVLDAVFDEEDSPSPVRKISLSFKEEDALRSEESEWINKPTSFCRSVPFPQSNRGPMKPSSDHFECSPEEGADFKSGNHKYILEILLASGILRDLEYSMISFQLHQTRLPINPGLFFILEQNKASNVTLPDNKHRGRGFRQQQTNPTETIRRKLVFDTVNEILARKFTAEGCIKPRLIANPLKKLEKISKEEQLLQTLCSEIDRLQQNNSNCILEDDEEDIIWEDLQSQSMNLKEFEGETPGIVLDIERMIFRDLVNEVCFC

B1: YN–IQD5 (IQD5 fused to the N-terminal half of YFP) (protein, UniProt F4J061 1-422)
chain: MGASGRWIKALVGFTKSDKSRSSKKDENVKVATKSRFGRKNSVDFDFEKFQDGFEDSNTRSMVDTGVSTSTSLQSYGGVAYDEQSRENRAATRIQTAYRGFLARRALRALKGLVRLQALVRGHAVRKQAAVTLRCMQALVRVQARVRARRVRLALELESETSQQTLQQQLADEARVREIEEGWCDSIGSVEQIQAKLLKRQEAAAKRERAMAYALTHQWQAGTRLLSAHSGFQPDKNNWGWNWLERWMAVRPWENRFLDSNLRDDAKLGENGMEQSENVPKTQIKSVSKMPNTSNLVSGVSSQMTGPCQSDGDSSSPGISSSIPVVSKAKSKPAKDDLAVEVNSRPGAGPRSHSNPKERSREPNRSSKERLSLPNSGKSLGSQSTKANRAGKLTPASQKVVEEKSAQNQRRRNSDPIKQRLA
binding [1]: binds | binding [2]: no binding
